Measured values as given in patent publication US20210348152A1 (TECHNION RESEARCH AND DEVELOPMENT FOUNDATION, published 2021).
No constants are given. Whether binding was seen depends on the method and setting. Binding seen in cells or lysates may run through a third protein. Some entries that bind do so weakly or less than the wild type. For some assays here: Sequences can lack the tags named with a protein.

T1: p105-HA (UniProt P19838 1-968, limits assumed)
T1 construct: Co-expressed with FLAG-tagged KPC1 species in HEK293T cells and detected with anti-NF-κB1 after anti-FLAG immunoprecipitation; also called NF-κB1 p105; NF-kB1 p105; not shown: HA tag
T1 sequence (looked up): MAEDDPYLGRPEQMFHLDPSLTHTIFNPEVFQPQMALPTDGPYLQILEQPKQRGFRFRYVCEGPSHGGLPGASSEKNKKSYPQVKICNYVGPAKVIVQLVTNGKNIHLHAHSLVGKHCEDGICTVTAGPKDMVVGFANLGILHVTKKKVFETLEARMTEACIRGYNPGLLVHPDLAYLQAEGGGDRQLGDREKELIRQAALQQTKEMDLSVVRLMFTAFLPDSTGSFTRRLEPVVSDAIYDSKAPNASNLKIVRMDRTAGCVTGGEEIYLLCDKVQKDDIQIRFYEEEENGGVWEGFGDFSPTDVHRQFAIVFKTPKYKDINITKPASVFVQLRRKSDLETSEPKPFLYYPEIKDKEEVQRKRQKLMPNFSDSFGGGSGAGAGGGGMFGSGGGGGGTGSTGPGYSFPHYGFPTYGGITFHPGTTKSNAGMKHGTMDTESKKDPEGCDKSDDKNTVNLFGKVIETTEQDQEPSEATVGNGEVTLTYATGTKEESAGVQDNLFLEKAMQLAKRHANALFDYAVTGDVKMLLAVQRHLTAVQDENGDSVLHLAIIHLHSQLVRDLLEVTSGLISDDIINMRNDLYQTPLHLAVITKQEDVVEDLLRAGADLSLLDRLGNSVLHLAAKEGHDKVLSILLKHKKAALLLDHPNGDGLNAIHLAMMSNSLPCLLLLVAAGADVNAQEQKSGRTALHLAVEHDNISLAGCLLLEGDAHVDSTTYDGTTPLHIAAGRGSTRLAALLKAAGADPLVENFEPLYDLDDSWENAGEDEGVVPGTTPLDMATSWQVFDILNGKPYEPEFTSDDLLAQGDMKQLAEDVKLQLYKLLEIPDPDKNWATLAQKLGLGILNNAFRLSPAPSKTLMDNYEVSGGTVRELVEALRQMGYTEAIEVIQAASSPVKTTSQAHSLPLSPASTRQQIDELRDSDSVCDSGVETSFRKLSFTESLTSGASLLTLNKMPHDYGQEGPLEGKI


Columns and labels:
p105-HA [1] = molecular target: T1, p105-HA; assay: co-immunoprecipitation (anti-FLAG) from HEK293T cells, western blot (FIG. 1B)
p105-HA [2] = molecular target: T1, p105-HA; assay: co-immunoprecipitation (anti-FLAG) from HEK293T cells, western blot (FIG. 2B)
p105-HA [3] = molecular target: T1, p105-HA; assay: co-immunoprecipitation (anti-FLAG) from HEK293T cells, western blot (FIG. 3B)

Row | binding (p105-HA [1]) | binding (p105-HA [2]) | binding (p105-HA [3]) | Binder
1 | binds | binds |  | KPC1Δ1-967 (FLAG-tagged) (enzyme) WILVRLWRGCGFGYRYTRLPHLLKTKLEDANLPSLQKPCPSTLLQQHMADLLQQGPDVAPSFLNSVLNQLNWAFSEFIGMIQEIQQAAERLERNFVDSRQLKVCATCFDLSVSLLRVLEMTITLVPEIFLDWTRPTSEMLLRRLAQLLNQVLNRVTAERNLFDRVVTLRLPGLESVDHYPILVAVTGILVQLLVRGPASEREQATSVLLADPCFQLRSICYLLGQPEPPAPGTALPAPDRKRFSLQSYADYISADELAQVEQMLAHLTSASAQAAAASLPTSEEDLCPICYAHPISAVFQPCGHKSCKACINQHLMNNKDCFFCKTTIVSVEDWEKGANTSTTSSAA
2 |  | binds |  | KPC1ΔCC domain (FLAG-tagged) (enzyme) MASKGAGMSFSRKSYRLTSDAEKSRVTGIVQEKLLNDYLNRIFSSSEHAPPAATSRKPLNFQNLPEHLDQLLQVDNEEEESQGQVEGRLGPSTVVLDHTGGFEGLLLVDDDLLGVIGHSNFGTIRSTTCVYKGKWLYEVLISSQGLMQIGWCTISCRFNQEEGVGDTHNSYAYDGNRVRKWNVTTTNYGKAWAAGDIVSCLIDLDDGTLSFCLNGVSLGTAFENLSRGLGMAYFPAISLSFKESVAFNFGSRPLRYPVAGYRPLQDPPSADLVRAQRLLGCFRAVLSVELDPVEGRLLDKESSKWRLRGQPTVLLTLAHIFHHFAPLLRKVYLVEAVLMSFLLGIVEKGTPTQAQSVVHQVLDLLWLFMEDYEVQDCLKQLMMSLLRLYRFSPIVPDLGLQIHYLRLTIAILRHEKSRKFLLSNVLFDVLRSVVFFYIKSPLRVEEAGLQELIPTTWWPHCSSREGKESTEMKEETAEERLRRRAYERGCQRLRKRIEVVEELQVQILKLLLDNKDDNGGEASRYIFLTKFRKFLQENASGRGNMPMLCPPEYMVCFLHRLISALRYYWDEYKASNPHASFSEEAYIPPQVFYNGKVDYFDLQRLGGLLSHLRKTLKDDLASKANIVIDPLELQSTAMDDLDEDEEPAPAMAQRPMQALAVGGPLPLPRPGWLSSPTLGRANRFLSTAAVSLMTPRRPLSTSEKVKVRTLSVEQRTREDIEGSHWNEGLLLGRPPEEPEQPLTENSLLEVLDGAVMMYNLSVHQQLGKMVGVSDDVNEYAMALRDTEDKLRRCPKRRKDILAELTKSQKVFSEKLDHLSRRLAWVHATVYSQEKMLDIYWLLRVCLRTIEHGDRTGSLFAFMPEFYLSVAINSYSALKNYFGPVHSMEELPGYEETLTRLAAILAKHFADARIVGTDIRDSLMQALASYVCYPHSLRAVERIPEEQRIAMVRNLLAPYEQRPWAQTNWILVRLWRGCGFGYRYTRLPHLLKTKLEDANLPSLQKPCPSTLLQQHMADLLQQGPDVAPSFLNSVLNQLNWAFVDSRQLKVCATCFDLSVSLLRVLEMTITLVPEIFLDWTRPTSEMLLRRLAQLLNQVLNRVTAERNLFDRVVTLRLPGLESVDHYPILVAVTGILVQLLVRGPASEREQATSVLLADPCFQLRSICYLLGQPEPPAPGTALPAPDRKRFSLQSYADYISADELAQVEQMLAHLTSASAQAAAASLPTSEEDLCPICYAHPISAVFQPCGHKSCKACINQHLMNNKDCFFCKTTIVSVEDWEKGANTSTTSSAA
3 | binds |  |  | KPC1 (full-length, wild type, FLAG-tagged) (enzyme) MASKGAGMSFSRKSYRLTSDAEKSRVTGIVQEKLLNDYLNRIFSSSEHAPPAATSRKPLNFQNLPEHLDQLLQVDNEEEESQGQVEGRLGPSTVVLDHTGGFEGLLLVDDDLLGVIGHSNFGTIRSTTCVYKGKWLYEVLISSQGLMQIGWCTISCRFNQEEGVGDTHNSYAYDGNRVRKWNVTTTNYGKAWAAGDIVSCLIDLDDGTLSFCLNGVSLGTAFENLSRGLGMAYFPAISLSFKESVAFNFGSRPLRYPVAGYRPLQDPPSADLVRAQRLLGCFRAVLSVELDPVEGRLLDKESSKWRLRGQPTVLLTLAHIFHHFAPLLRKVYLVEAVLMSFLLGIVEKGTPTQAQSVVHQVLDLLWLFMEDYEVQDCLKQLMMSLLRLYRFSPIVPDLGLQIHYLRLTIAILRHEKSRKFLLSNVLFDVLRSVVFFYIKSPLRVEEAGLQELIPTTWWPHCSSREGKESTEMKEETAEERLRRRAYERGCQRLRKRIEVVEELQVQILKLLLDNKDDNGGEASRYIFLTKFRKFLQENASGRGNMPMLCPPEYMVCFLHRLISALRYYWDEYKASNPHASFSEEAYIPPQVFYNGKVDYFDLQRLGGLLSHLRKTLKDDLASKANIVIDPLELQSTAMDDLDEDEEPAPAMAQRPMQALAVGGPLPLPRPGWLSSPTLGRANRFLSTAAVSLMTPRRPLSTSEKVKVRTLSVEQRTREDIEGSHWNEGLLLGRPPEEPEQPLTENSLLEVLDGAVMMYNLSVHQQLGKMVGVSDDVNEYAMALRDTEDKLRRCPKRRKDILAELTKSQKVFSEKLDHLSRRLAWVHATVYSQEKMLDIYWLLRVCLRTIEHGDRTGSLFAFMPEFYLSVAINSYSALKNYFGPVHSMEELPGYEETLTRLAAILAKHFADARIVGTDIRDSLMQALASYVCYPHSLRAVERIPEEQRIAMVRNLLAPYEQRPWAQTNWILVRLWRGCGFGYRYTRLPHLLKTKLEDANLPSLQKPCPSTLLQQHMADLLQQGPDVAPSFLNSVLNQLNWAFSEFIGMIQEIQQAAERLERNFVDSRQLKVCATCFDLSVSLLRVLEMTITLVPEIFLDWTRPTSEMLLRRLAQLLNQVLNRVTAERNLFDRVVTLRLPGLESVDHYPILVAVTGILVQLLVRGPASEREQATSVLLADPCFQLRSICYLLGQPEPPAPGTALPAPDRKRFSLQSYADYISADELAQVEQMLAHLTSASAQAAAASLPTSEEDLCPICYAHPISAVFQPCGHKSCKACINQHLMNNKDCFFCKTTIVSVEDWEKGANTSTTSSAA
4 |  |  | binds | WILVRLW-KPC1 Δ 1-1253 (enzyme) WILVRLWCPICYAHPISAVFQPCGHKSCKACINQHLMNNKDCFFCKTTIVSVEDWEKGANTSTTSSAA
